Source: US20240002500A1 (GUANGDONG FAPON BIOPHARMA, published 2024)
Positions count from the first letter of the chain named. Results are given in words; binding and its absence hold for the method and conditions named. Some entries that bind do so weakly or less than the wild type.

Tests used:
[1] = biological target: T1, full-length human TIGIT on cells (human, UniProt Q495A1 22-244); assay: FACS on CHO-hTIGIT cells (figure legend)
T1 construct: whole, on cells; The same protein is used for CHO-hTIGIT, PBMC and NK92-hTIGIT; the cells are named under assay; also called CHO-hTIGIT; hTIGIT
T1 sequence (looked up): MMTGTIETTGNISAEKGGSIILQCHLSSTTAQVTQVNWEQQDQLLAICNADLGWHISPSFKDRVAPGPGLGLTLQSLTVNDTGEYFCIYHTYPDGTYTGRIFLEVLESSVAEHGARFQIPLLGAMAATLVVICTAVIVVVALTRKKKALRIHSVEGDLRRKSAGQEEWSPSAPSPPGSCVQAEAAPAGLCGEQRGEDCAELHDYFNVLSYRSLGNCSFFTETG

[2] = biological target: T1, full-length human TIGIT on cells; assay: FACS on PBMC of healthy people (figure legend)
[3] = biological target: T1, full-length human TIGIT on cells; assay: FACS on CHO-hTIGIT cells
[4] = biological target: full-length cynoTIGIT on CHO cells (monkey (cyno)); assay: FACS on CHO-cynoTIGIT cells (figure legend)
[5] = biological target: full-length cynoTIGIT on CHO cells (monkey (cyno)); assay: FACS on CHO-cynoTIGIT cells
hTIGIT-hFc = biological target: T2, hTIGIT-hFc (human, UniProt Q495A1 22-141); assay: FACS blocking: antibody preincubated with hTIGIT-hFc, then CHO-hPVR cells, PE anti-human IgG Fc; blocked partner PVR on cells
T2 construct: also called antigen protein hTIGIT-hFc; human TIGIT recombinant protein carrying a human Fc tag; not shown: human Fc tag
T2 sequence (looked up): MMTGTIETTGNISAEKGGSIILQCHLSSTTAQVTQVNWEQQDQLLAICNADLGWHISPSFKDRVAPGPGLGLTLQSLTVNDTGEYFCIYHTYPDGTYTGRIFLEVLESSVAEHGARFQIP
Procedure: The CHO-engineered cells CHO-hPVR cells recombinantly expressing full-length human PVR were counted centrifugated at 300 g for 5 min, resuspended with an FCM buffer, the cells were added to the 96-well V-shaped plate; the volume of each cell added into a 96-well V-shaped plate was 2E+05 cell/well (being added in 50 μL/well); and incubation was performed in dark on ice for 30 min. Centrifugation (300 g/5 min) was performed; supernatant was discarded; 200 μL of the FCM buffer was added for washing once; centrifugation (300 g/5 min) was performed; and the supernatant was discarded. Secondary antibodies (PE anti-human IgG Fc, 1:500 dilution) were added to the 96-well V-shaped plate (in 100 μL/well); and incubation was performed in dark on ice for 30 min. Centrifugation (300 g/5 min) was performed; supernatant was discarded; 200 μL of the FCM buffer was added for washing once; centrifugation (300 g/5 min) was performed; and the supernatant was discarded. 100 μL of the 1×PBS was added for resuspending, and on-machine detection was performed.

[6] = biological target: T1, full-length human TIGIT on cells; assay: FACS on PBMC of healthy people (naturally expressed TIGIT)
[7] = biological target: T1, full-length human TIGIT on cells; assay: FACS blocking: antibody on CHO-hTIGIT cells, then hPVR-hFc, PE anti-human IgG Fc; blocked ligand hPVR-hFc
Procedure: The CHO-engineered cells CHO-hTIGIT cells recombinantly expressing full-length human TIGIT were counted, and centrifugated at 300 g for 5 min, resuspended with an FCM buffer, and cell density was adjusted to 4E+06 cell/mL for later use. […] According to an experimental design, in each well, 50 μL of the antibody and 50 μL of the cell (the volume of each cell added into a 96-well V-shaped plate being 2E+05 cell/well) were respectively added in the 96-well V-shaped plate; and incubation was performed in dark on ice for 30 min. The ligand protein was added to the 96-well V-shaped plate (in 50 μL/well); and incubation was performed in dark on ice for 30 min. Centrifugation (300 g/5 min) was performed; supernatant was discarded; 200 μL of the FCM buffer was added for washing once; centrifugation (300 g/5 min) was performed; and the supernatant was discarded. Secondary antibodies (PE anti-human IgG Fc, 1:500 dilution) were added to the 96-well V-shaped plate (in 100 μL/well); and incubation was performed in dark on ice for 30 min. Centrifugation (300 g/5 min) was performed; supernatant was discarded; 200 μL of the FCM buffer was added for washing once; centrifugation (300 g/5 min) was performed; and the supernatant was discarded. 100 μL of the 1×PBS was added for resuspending, and on-machine detection was performed.

[8] = biological target: full-length cynoTIGIT on CHO cells (monkey (cyno)); assay: FACS titration on CHO-cynoTIGIT cells, PE goat anti-mouse IgG

Measured: binding

B1: 3Tigit-16 mouse monoclonal antibody (antibody, V domains shown)
VH: EVQLQQSGPELVKPGASVKMSCKASGFTFTDYFMDWVKQSRGASFEWIGRLNPNNGRTSYNQKFKGKATLTVDKSSSTAYMELNSLTSEDSAVYYCARGDLGRWYFDVWGAGTTVTVSS
VL: QIVLTQSPAIMSASPGEKVTMTCSASSSVSYMHWYQQKSGTSPKRWIYDTSKLASGVPTRFSGSGSGTSYSLTISSMEAEDAASYFCQQWSSNSLTFGAGTKLELKR
notes: Mouse monoclonal antibody from hybridoma
binds: [1] | [2] | [3] | [4] | [5] | hTIGIT-hFc | [6] | [7]

B2: 3Tigit-29 mouse monoclonal antibody (antibody, V domains shown)
VH: EVQLQQSGPELVKPGASVKISCKASGYTFTDYNMHWVKQSLGKSLEWIGYVNSFNGNTGYSQKFKSKVTLTVDRSSRTAYMDLRSLTSEDSAVFYCARSSRGGFAYWGQGTLVTVSA
VL: B1 VL with T59A, G65V, S84T, F86Y
notes: as for B1
binds: [1] | [2] | [3] | [4] | [5] | hTIGIT-hFc | [6] | [7]

B3: Tigit-5 mouse monoclonal antibody (antibody, V domains shown)
VH: QVQLQQPGAELVRPGASVKLSCKASGYSFTSYWMNWVKQRPGQGLEWIGMIRPSDSETRLNQMFKDKATLTVDKSSSTAYMQLSSPTSDDSAVYYCAGIHDYGHGAYWGQGTLVTVSA
VL: DIQMIQSPASLSVSVGETVTITCRASENIYSNLAWYQQKQGKSPQLLVYAASHLPDGVPSRFSGSGSGTQYSLKINSLQSEDFGSYYCQHFWGTPRTFGGGTKLEIKR
notes: as for B1
binds: [4] | [5]

B4: 14Tigit-1-1 mouse monoclonal antibody (antibody, V domains shown)
VH: DVQLQESGPGLVKPSQSLSLTCTVTGYSITSDYAWNWIRQFPGNKLEWMGYISYSGSTRSNPSLKSRISITRDTSKNQFFLQLNSMTAEDTATYYCGGWEVRNYYAMDYWGQGTSVTVSS
VL: DIVMTQSHKFMSTSVGDRVSITCKASQHVSTAVAWYQQKPGQSPKLLIYSASYRYTGVPDRFTGSGSGTDFTFTISSVQAEDLAVYYCQQHYNTPWTFGGGTKLEIKR
notes: as for B1
binds: [4] | [5] | [8]
